These are yes or no findings as the source states them, for the method shown. In cells and extracts the contact can be indirect. Some binding calls cover weakened binding; strength is not graded here.
Biological target: Human C1q (human) (UniProt P02745+P02746+P02747)
Assay: pull-down; Human serum or C1q-depleted serum (99% depletion) diluted 1:3 in 20 mM phosphate pH 7.4, 0.075 M NaCl, 10 mM EDTA passed over CS-A-Sepharose or control Sepharose; eluted with 1.0 M NaCl; eluate analysed by reducing SDS-PAGE and Western blot

By UniProt entry, the sequences of proteins in these tests, tags left out. Where a name states a change or a piece, a line headed by the entry shows the natural chain unless it says otherwise.
UniProt P02745: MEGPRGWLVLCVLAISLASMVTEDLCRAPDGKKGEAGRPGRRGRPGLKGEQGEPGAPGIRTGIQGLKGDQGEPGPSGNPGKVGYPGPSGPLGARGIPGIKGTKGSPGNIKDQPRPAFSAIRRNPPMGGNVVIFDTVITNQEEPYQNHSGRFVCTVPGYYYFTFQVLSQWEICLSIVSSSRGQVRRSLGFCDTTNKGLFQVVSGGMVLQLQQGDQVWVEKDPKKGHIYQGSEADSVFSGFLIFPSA
UniProt P02746: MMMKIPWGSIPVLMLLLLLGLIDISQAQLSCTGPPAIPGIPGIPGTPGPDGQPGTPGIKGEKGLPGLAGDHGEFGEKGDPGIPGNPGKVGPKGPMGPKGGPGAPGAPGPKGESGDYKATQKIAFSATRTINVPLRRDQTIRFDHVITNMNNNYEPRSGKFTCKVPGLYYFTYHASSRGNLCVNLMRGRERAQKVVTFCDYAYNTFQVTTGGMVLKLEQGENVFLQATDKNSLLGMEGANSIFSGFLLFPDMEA
UniProt P02747: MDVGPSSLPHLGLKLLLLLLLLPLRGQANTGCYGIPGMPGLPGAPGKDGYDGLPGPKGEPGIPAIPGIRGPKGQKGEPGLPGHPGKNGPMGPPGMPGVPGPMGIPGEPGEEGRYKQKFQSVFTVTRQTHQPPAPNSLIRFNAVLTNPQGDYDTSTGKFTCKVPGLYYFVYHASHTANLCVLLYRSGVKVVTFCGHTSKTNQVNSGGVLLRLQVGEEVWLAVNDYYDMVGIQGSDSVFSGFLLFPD

- binding: binds
B1: C1 inhibitor (protein, UniProt P05155 23-500)
chain: NPNATSSSSQDPESLQDRGEGKVATTVISKMLFVEPILEVSSLPTTNSTTNSATKITANTTDEPTTQPTTEPTTQPTIQPTQPTTQLPTDSPTQPTTGSFCPGPVTLCSDLESHSTEAVLGDALVDFSLKLYHAFSAMKKVETNMAFSPFSIASLLTQVLLGAGENTKTNLESILSYPKDFTCVHQALKGFTTKGVTSVSQIFHSPDLAIRDTFVNASRTLYSSSPRVLSNNSDANLELINTWVAKNTNNKISRLLDSLPSDTRLVLLNAIYLSAKWKTTFDPKKTRMEPFHFKNSVIKVPMMNSKKYPVAHFIDQTLKAKVGQLQLSHNLSLVILVPQNLKHRLEDMEQALSPSVFKAIMEKLEMSKFQPTLLTLPRIKVTTSQDMLSIMEKLEFFDFSYDLNLCGLTEDPDLQVSAMQHQTVLELTETGVEAAAASAISVARTLLVFEVQQPFLFVLWDQQHKFPVFMGRVYDPRA

From PMC2944812
